According to article PMC3393660, “Structural Interaction and Functional Regulation of Polycystin-2 by Filamin” (PLoS ONE, 2012):
No constants are given. Whether binding was seen depends on the method and setting. For part of these data: Binding seen in cells or lysates may run through a third protein. Some binding calls cover weakened binding; strength is not graded here. For part of these data: Sequences can lack the tags named with a protein. Values belong to the molecule of their own block, whether it stands above or below them.

Chains of the proteins cited; added tags and fusions are not shown. Lines headed by an entry give the natural chain unless they say otherwise; changes in a name come on top.
UniProt P21333: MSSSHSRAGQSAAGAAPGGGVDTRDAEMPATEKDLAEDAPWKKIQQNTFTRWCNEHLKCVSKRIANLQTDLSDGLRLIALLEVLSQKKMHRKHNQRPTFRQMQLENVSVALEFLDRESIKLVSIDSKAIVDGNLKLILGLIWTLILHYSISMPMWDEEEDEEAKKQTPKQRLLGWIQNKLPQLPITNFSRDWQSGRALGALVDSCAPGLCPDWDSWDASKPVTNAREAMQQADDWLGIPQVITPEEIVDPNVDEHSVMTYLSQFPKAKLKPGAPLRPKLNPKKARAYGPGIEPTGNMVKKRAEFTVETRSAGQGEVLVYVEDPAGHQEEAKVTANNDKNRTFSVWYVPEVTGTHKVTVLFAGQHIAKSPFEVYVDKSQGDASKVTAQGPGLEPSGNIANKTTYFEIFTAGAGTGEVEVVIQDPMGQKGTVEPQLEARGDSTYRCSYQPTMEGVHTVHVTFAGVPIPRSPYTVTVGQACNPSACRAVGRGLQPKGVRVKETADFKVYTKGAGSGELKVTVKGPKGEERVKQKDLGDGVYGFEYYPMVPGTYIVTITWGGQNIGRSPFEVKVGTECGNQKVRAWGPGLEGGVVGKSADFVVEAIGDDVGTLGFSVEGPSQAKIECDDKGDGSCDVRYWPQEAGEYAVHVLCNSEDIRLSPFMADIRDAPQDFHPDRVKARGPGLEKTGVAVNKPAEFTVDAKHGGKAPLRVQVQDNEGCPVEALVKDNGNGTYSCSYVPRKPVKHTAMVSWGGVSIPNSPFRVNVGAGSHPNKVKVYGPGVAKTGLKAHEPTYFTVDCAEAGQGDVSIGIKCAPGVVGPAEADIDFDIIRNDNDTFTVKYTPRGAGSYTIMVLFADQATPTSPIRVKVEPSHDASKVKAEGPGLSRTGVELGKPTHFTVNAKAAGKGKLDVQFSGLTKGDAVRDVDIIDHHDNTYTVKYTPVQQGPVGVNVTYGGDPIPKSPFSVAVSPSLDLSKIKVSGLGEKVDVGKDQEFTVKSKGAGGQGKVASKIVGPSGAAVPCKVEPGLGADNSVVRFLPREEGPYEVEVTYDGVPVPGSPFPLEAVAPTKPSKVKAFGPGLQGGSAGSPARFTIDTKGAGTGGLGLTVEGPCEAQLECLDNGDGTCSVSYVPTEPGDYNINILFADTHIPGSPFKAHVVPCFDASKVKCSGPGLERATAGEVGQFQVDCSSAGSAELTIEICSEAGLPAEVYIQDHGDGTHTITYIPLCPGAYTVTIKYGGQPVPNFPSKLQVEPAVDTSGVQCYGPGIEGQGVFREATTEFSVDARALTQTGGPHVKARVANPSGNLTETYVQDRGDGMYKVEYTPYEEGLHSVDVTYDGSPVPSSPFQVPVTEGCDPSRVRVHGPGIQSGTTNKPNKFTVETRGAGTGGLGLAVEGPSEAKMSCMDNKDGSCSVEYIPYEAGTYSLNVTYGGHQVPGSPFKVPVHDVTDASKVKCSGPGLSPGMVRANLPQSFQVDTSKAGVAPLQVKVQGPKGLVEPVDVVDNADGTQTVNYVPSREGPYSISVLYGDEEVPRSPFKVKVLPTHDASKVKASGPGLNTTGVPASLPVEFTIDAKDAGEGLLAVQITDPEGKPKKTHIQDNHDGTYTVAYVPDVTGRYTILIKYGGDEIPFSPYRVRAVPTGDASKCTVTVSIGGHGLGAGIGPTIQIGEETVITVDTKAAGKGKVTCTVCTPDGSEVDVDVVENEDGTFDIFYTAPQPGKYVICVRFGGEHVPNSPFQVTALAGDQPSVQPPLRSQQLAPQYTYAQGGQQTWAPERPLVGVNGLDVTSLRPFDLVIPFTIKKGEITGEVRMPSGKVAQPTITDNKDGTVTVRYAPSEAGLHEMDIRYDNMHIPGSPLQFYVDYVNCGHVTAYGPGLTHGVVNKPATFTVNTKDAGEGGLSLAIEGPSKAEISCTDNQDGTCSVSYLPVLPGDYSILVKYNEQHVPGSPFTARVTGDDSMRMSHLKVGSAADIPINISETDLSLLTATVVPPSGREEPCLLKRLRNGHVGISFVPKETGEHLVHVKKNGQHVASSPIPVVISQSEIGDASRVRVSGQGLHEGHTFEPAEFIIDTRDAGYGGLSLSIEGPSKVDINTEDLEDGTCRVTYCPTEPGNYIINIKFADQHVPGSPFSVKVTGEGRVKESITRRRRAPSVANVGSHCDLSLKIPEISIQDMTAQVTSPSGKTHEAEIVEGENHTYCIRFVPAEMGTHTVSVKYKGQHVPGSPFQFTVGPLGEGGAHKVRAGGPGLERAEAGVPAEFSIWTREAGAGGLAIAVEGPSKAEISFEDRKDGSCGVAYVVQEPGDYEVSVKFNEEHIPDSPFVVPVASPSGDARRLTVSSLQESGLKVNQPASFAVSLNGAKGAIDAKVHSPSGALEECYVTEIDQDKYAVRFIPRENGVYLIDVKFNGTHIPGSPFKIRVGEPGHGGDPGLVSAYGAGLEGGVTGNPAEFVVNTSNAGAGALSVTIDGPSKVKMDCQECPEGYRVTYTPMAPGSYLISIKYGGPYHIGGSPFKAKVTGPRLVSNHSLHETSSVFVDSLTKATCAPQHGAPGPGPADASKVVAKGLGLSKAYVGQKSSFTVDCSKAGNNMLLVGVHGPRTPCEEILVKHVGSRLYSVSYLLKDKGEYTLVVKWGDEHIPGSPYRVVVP
UniProt Q8BTM8: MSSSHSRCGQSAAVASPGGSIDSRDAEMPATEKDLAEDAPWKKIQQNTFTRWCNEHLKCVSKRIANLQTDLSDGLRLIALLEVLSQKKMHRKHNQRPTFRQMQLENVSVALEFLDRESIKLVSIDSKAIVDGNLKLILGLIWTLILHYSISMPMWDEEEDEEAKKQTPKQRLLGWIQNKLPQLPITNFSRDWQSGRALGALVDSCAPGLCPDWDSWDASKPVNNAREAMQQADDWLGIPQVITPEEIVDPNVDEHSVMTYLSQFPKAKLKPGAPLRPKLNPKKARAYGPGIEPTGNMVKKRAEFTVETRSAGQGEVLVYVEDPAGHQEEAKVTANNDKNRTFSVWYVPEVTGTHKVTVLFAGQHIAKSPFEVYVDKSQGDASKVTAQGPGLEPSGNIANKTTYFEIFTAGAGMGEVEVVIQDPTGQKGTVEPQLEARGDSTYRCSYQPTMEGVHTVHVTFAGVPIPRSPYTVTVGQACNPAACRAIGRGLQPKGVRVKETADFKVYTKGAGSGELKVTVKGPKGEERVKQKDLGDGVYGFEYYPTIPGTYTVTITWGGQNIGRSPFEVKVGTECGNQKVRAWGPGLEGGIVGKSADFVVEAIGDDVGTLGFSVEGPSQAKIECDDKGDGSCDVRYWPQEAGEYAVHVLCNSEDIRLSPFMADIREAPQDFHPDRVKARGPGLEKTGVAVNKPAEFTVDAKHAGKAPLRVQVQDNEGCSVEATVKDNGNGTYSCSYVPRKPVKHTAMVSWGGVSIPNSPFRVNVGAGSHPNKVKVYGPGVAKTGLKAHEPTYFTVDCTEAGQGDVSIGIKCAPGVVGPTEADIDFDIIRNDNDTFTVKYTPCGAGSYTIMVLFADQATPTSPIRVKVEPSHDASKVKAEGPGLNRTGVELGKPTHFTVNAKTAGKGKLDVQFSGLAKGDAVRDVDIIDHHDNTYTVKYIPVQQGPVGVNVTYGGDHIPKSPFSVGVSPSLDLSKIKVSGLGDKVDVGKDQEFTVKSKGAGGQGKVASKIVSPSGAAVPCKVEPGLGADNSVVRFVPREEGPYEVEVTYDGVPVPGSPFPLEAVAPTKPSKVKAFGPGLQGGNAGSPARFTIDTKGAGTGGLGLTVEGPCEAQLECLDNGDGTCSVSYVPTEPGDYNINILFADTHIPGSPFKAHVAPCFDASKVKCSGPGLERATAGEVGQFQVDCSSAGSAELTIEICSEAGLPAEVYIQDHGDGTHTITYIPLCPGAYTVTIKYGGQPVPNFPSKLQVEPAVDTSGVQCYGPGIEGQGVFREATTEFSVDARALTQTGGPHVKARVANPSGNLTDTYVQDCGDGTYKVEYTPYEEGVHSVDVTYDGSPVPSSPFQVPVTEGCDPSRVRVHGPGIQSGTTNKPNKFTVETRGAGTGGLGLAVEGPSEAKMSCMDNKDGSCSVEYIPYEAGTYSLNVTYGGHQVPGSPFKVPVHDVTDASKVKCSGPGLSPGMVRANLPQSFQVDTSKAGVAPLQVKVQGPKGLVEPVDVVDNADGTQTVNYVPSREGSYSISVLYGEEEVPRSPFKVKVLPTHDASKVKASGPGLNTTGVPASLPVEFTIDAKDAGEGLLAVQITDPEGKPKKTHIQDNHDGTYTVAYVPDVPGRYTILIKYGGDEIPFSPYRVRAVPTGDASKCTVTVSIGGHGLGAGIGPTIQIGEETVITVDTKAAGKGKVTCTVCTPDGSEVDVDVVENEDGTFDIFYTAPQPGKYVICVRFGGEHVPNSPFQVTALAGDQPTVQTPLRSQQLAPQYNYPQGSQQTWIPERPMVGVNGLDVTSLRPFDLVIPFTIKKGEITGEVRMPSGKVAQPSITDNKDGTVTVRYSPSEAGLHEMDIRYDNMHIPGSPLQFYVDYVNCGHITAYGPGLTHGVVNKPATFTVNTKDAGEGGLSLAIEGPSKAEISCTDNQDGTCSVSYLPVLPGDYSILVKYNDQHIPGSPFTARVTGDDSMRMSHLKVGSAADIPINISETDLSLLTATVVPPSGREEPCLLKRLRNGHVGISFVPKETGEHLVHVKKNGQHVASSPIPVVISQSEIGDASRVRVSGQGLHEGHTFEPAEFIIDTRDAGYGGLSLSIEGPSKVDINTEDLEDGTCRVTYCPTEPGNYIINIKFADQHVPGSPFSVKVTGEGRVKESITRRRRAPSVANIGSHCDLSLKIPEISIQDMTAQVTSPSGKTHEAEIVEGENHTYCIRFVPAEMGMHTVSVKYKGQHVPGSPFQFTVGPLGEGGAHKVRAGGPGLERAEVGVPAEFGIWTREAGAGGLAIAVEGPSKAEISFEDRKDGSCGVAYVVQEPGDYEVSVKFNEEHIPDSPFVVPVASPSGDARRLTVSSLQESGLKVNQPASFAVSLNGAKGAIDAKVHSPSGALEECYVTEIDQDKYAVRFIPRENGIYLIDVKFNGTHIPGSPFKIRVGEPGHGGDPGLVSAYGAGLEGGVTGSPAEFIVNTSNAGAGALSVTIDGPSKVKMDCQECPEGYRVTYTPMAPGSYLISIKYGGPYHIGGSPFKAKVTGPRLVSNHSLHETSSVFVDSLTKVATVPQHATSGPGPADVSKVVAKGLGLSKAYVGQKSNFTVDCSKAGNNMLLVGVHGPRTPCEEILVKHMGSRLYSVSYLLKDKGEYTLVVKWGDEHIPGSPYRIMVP

Key:
[1] = biological target: T1, PC2 C-terminus (PC2C, aa D682-V968) fused to the GAL4 DNA binding domain (human) (UniProt Q13563); experiment: two-hybrid; GAL4 system; PC2N or PC2C as bait in pGBKT7, preys in pGADT7; human heart library screened in AH109, bait-prey pairs co-transformed in Y187; beta-GAL by X-gal filter lift at 30°C
T1 sequence: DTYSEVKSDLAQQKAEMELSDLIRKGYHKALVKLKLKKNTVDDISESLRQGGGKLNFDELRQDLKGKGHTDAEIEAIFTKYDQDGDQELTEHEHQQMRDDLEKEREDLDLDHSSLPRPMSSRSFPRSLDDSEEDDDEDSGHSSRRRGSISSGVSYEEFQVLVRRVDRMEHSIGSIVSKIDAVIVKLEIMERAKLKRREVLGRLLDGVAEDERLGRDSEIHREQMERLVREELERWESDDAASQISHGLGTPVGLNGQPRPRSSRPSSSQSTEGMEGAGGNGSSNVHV

[2] = biological target: T2, PC2 N-terminus (PC2N, aa M1-K215) fused to the GAL4 DNA binding domain (human) (UniProt Q13563); experiment: as above
T2 sequence: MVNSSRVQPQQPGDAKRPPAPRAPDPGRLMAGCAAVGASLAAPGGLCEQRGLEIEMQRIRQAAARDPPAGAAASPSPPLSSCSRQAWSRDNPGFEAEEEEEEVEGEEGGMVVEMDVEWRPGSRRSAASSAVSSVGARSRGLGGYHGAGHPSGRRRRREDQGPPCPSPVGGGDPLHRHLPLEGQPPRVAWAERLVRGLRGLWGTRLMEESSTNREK

[3] = biological target: endogenous FLNA of HEK293T cells (human (endogenous in HEK293T)) (UniProt P21333); experiment: co-IP; endogenous proteins in cell lysates (IMCD, MDCK, LLC-PK1, HEK293T); precipitated with anti-PC2 H-280 or, reciprocally, anti-FLNA H-300, non-immune rabbit IgG as control; blotted with anti-FLNA H-300 or anti-PC2 1A11
[4] = biological target: FLNA of human melanoma A7 cells (human (called endogenous in A7)) (UniProt P21333); experiment: co-IP; A7 cells stably expressing GFP-PC2 and transiently expressing GFP-PC2N, GFP-PC2C, both, or GFP (48 hr); precipitated with anti-FLNA H-300, blotted with anti-GFP B-2
[5] = biological target: endogenous FLNA of IMCD cells (not stated (endogenous in IMCD)) (UniProt Q8BTM8); experiment: co-IP; endogenous proteins in cell lysates (IMCD, MDCK, LLC-PK1, HEK293T); precipitated with anti-PC2 H-280 or, reciprocally, anti-FLNA H-300, non-immune rabbit IgG as control; blotted with anti-FLNA H-300 or anti-PC2 1A11

binding [1]: binds | binding [2]: binds
Molecule: C-terminus of human FLNA (FLNAC, aa 2150-2647) in pGADT7 (from UniProt P21333 2150-2647) (domain or fragment)

binding [4]: binds
B4: GFP-PC2 (protein, UniProt Q13563 1-968)
chain: MVNSSRVQPQQPGDAKRPPAPRAPDPGRLMAGCAAVGASLAAPGGLCEQRGLEIEMQRIRQAAARDPPAGAAASPSPPLSSCSRQAWSRDNPGFEAEEEEEEVEGEEGGMVVEMDVEWRPGSRRSAASSAVSSVGARSRGLGGYHGAGHPSGRRRRREDQGPPCPSPVGGGDPLHRHLPLEGQPPRVAWAERLVRGLRGLWGTRLMEESSTNREKYLKSVLRELVTYLLFLIVLCILTYGMMSSNVYYYTRMMSQLFLDTPVSKTEKTNFKTLSSMEDFWKFTEGSLLDGLYWKMQPSNQTEADNRSFIFYENLLLGVPRIRQLRVRNGSCSIPQDLRDEIKECYDVYSVSSEDRAPFGPRNGTAWIYTSEKDLNGSSHWGIIATYSGAGYYLDLSRTREETAAQVASLKKNVWLDRGTRATFIDFSVYNANINLFCVVRLLVEFPATGGVIPSWQFQPLKLIRYVTTFDFFLAACEIIFCFFIFYYVVEEILEIRIHKLHYFRSFWNCLDVVIVVLSVVAIGINIYRTSNVEVLLQFLEDQNTFPNFEHLAYWQIQFNNIAAVTVFFVWIKLFKFINFNRTMSQLSTTMSRCAKDLFGFAIMFFIIFLAYAQLAYLVFGTQVDDFSTFQECIFTQFRIILGDINFAEIEEANRVLGPIYFTTFVFFMFFILLNMFLAIINDTYSEVKSDLAQQKAEMELSDLIRKGYHKALVKLKLKKNTVDDISESLRQGGGKLNFDELRQDLKGKGHTDAEIEAIFTKYDQDGDQELTEHEHQQMRDDLEKEREDLDLDHSSLPRPMSSRSFPRSLDDSEEDDDEDSGHSSRRRGSISSGVSYEEFQVLVRRVDRMEHSIGSIVSKIDAVIVKLEIMERAKLKRREVLGRLLDGVAEDERLGRDSEIHREQMERLVREELERWESDDAASQISHGLGTPVGLNGQPRPRSSRPSSSQSTEGMEGAGGNGSSNVHV

binding [5]: binds
B5: endogenous PC2 of IMCD cells (protein, UniProt O35245 1-966)
chain: MVNSRRVQPQPPGDAGRSPAPRASGPGRLVAGGAGLAVPGGLGEQRGLEIEMERIRQAAARDPPAGASASPSPPLSSCSRQAWSRDNPGFEAEEDDDDDEVEGEEGGMVVEMDVEWRPGSRRSASSSAVSSVGARGRGLGSYRGAAHLSGRRRRLEDQGAQCPSPAGGGDPLHRHLPLEGQPPRVAWAERLVRGLRGLWGTRLMEESNANREKYLKSVLRELVTYLFFLVVLCILTYGMMSSNVYYYTRTLSQLFIDTPVSKTEKTNFKTLSSMEDFWKFTEGSFLDGLYWKAQTSNHTQADNRSFIFYENLLLGVPRLRQLRVRNGSCSIPQDLRDEIKECYDVYSVSSEDRAPFGPRNGTAWMYTSEKELNGSSHWGIIASYSGAGYYLDLSRTREETAAQLAGLRRNFWLDRGTRAAFIDFSVYNANINLFCVVRLLAEFPATGGVVPSWQFQPVKLIRYVTAFDFFLAACEIIFCFFIIYYVVEEILEIRIHRLSYFRSFWNCLDVVIVVLSVVAMVINIYRMSNAEGLLQFLEDQNSFPNFEHVAYWQIQFNNISAVMVFLVWIKLFKFINFNRTMSQLSTTMSRCAKDLFGFTIMFSIIFLAYAQLAYLVFGTQVDDFSTFQECIFTQFRIILGDINFAEIEEANRVLGPLYFTTFVFFMFFILLNMFLAIINDSYSEVKSDLAQQKAEMELSDLIRKGCQKALVKLKLKRNTVDAISESLRQGGGKLNFDELRQDLKGKGHTDAEIEAIFTKYDQDGDQELTEREHQQMRDDLEKEREDLDLEHSSLPRPMSSRSFPRSLDDSEEEDDEDSGHSSRRRGSISSGVSYEEFQVLVRRVDRMEHSIGSIVSKIDAVIVKLEIMERAKLKRREVLGRLLDGVAEDARLGRDSEIHREQMERLVREELERWESDDAASQTGHGVSTQVGLGGQPHPRNPRPPSSQSAEGLEGGGGNGSANVHA

The remaining lines, values behind:

B1: C-terminus of human FLNB (FLNBC, aa 2105-2602) in pGADT7 (domain or fragment, UniProt O75369 2105-2602)
chain: APSVATVGSICDLNLKIPEINSSDMSAHVTSPSGRVTEAEIVPMGKNSHCVRFVPQEMGVHTVSVKYRGQHVTGSPFQFTVGPLGEGGAHKVRAGGPGLERGEAGVPAEFSIWTREAGAGGLSIAVEGPSKAEITFDDHKNGSCGVSYIAQEPGNYEVSIKFNDEHIPESPYLVPVIAPSDDARRLTVMSLQESGLKVNQPASFAIRLNGAKGKIDAKVHSPSGAVEECHVSELEPDKYAVRFIPHENGVHTIDVKFNGSHVVGSPFKVRVGEPGQAGNPALVSAYGTGLEGGTTGIQSEFFINTTRAGPGTLSVTIEGPSKVKMDCQETPEGYKVMYTPMAPGNYLISVKYGGPNHIVGSPFKAKVTGQRLVSPGSANETSSILVESVTRSSTETCYSAIPKASSDASKVTSKGAGLSKAFVGQKSSFLVDCSKAGSNMLLIGVHGPTTPCEEVSMKHVGNQQYNVTYVVKERGDYVLAVKWGEEHIPGSPFHVTVP
binding [1]: binds | binding [2]: binds

B2: C-terminus of human FLNC (FLNCC, aa 2144-2725) in pGADT7 (domain or fragment, UniProt Q14315 2144-2725)
chain: APSIATIGSTCDLNLKIPGNWFQMVSAQERLTRTFTRSSHTYTRTERTEISKTRGGETKREVRVEESTQVGGDPFPAVFGDFLGRERLGSFGSITRQQEGEASSQDMTAQVTSPSGKVEAAEIVEGEDSAYSVRFVPQEMGPHTVAVKYRGQHVPGSPFQFTVGPLGEGGAHKVRAGGTGLERGVAGVPAEFSIWTREAGAGGLSIAVEGPSKAEIAFEDRKDGSCGVSYVVQEPGDYEVSIKFNDEHIPDSPFVVPVASLSDDARRLTVTSLQETGLKVNQPASFAVQLNGARGVIDARVHTPSGAVEECYVSELDSDKHTIRFIPHENGVHSIDVKFNGAHIPGSPFKIRVGEQSQAGDPGLVSAYGPGLEGGTTGVSSEFIVNTLNAGSGALSVTIDGPSKVQLDCRECPEGHVVTYTPMAPGNYLIAIKYGGPQHIVGSPFKAKVTGPRLSGGHSLHETSTVLVETVTKSSSSRGSSYSSIPKFSSDASKVVTRGPGLSQAFVGQKNSFTVDCSKAGTNMMMVGVHGPKTPCEEVYVKHMGNRVYNVTYTVKEKGDYILIVKWGDESVPGSPFKVKVP
binding [1]: binds | binding [2]: binds

B3: endogenous human PC2 (protein, UniProt Q13563 1-968)
chain: B4 chain
binding [3]: binds
